This is an account of results in paper PMC12848035.

Results are given in words; binding and its absence hold for the method and conditions named. Binding seen in cells or lysates may run through a third protein. Some binding calls cover weakened binding; strength is not graded here. Tags and fused reporters may be left off the sequences shown.

Test in all cases: co-IP; HEK293T cells transfected with tagged HHIPL2 and HNRNPC constructs; lysate in IP lysis buffer; anti-FLAG magnetic beads 4 h at 4 °C; Western blot
For orientation: A western blot detects proteins with antibodies after separation by electrophoresis.

In assay [1] the target is HNRNPC-FLAG (full-length, WT) (human) (UniProt P07910).
Assay [2] deals with T1, HNRNPC-RRM (human) (UniProt P07910).
T1 sequence: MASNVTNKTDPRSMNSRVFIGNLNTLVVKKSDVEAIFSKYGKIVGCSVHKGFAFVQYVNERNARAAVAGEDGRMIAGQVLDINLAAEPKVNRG

The target of assay [3] is T2, HNRNPC-ΔRRM (human) (UniProt P07910).
T2 sequence: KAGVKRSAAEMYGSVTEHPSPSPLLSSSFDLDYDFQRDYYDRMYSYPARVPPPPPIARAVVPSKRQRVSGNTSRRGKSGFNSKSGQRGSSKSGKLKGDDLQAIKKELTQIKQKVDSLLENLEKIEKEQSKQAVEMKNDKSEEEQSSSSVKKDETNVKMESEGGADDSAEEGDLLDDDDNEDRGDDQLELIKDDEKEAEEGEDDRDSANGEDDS

B1: HHIPL2-MYC (protein, UniProt Q6UWX4 42-724)
chain: HPQCLDYGPPFQPPLHLEFCSDYESFGCCDQHKDRRIAARYWDIMEYFDLKRHELCGDYIKDILCQECSPYAAHLYDAENTQTPLRNLPGLCSDYCSAFHSNCHSAISLLTNDRGLQESHGRDGTRFCHLLDLPDKDYCFPNVLRNDYLNRHLGMVAQDPQGCLQLCLSEVANGLRNPVSMVHAGDGTHRFFVAEQVGVVWVYLPDGSRLEQPFLDLKNIVLTTPWIGDERGFLGLAFHPKFRHNRKFYIYYSCLDKKKVEKIRISEMKVSRADPNKADLKSERVILEIEEPASNHNGGQLLFGLDGYMYIFTGDGGQAGDPFGLFGNAQNKSSLLGKVLRIDVNRAGSHGKRYRVPSDNPFVSEPGAHPAIYAYGIRNMWRCAVDRGDPITRQGRGRIFCGDVGQNRFEEVDLILKGGNYGWRAKEGFACYDKKLCHNASLDDVLPIYAYGHAVGKSVTGGYVYRGCESPNLNGLYIFGDFMSGRLMALQEDRKNKKWKKQDLCLGSTTSCAFPGLISTHSKFIISFAEDEAGELYFLATSYPSAYAPRGSIYKFVDPSRRAPPGKCKYKPVPVRTKSKRIPFRPLAKTVLDLLKEQSEKAARKSSSATLASGPAQGLSEKGSSKKLASPTSSKNTLRGPGTKKKARVGPHVRQGKRRKSLKSHSGRMRPSAEQKRAGRSLP
In the case of B1, the binding entry in assay [1] was “binds”; in assay [2], “no binding”; in assay [3], “binds”.
